Structures can show the parent of a compound that is named as a salt. Some of the results follow. Most values lie at the level of the controls, where differences are scatter.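 Melting temperature was read by differential scanning fluorimetry in a single-replicate pilot screen of a library of approved drugs and clinical or known-target compounds. Compounds raising the melting point by at least 2 °C were the top stabilizing hits, and negative shifts mean destabilization.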
Test system: SARS-CoV-2 main protease (Mpro, nsp5)
Experiment: thermal shift ΔTm of Mpro relative to plate average Tm; higher = stronger thermal stabilization of Mpro (binding)
Settings: 10 µM; protein concentration 1 µM

SMILES | thermal shift ΔTm of Mpro [°C]
NC(=O)c1cc(N2CC2)c([N+](=O)[O-])cc1[N+](=O)[O-] [Tretazicar] | -0.0205
Cc1cc(C)nc(NS(=O)(=O)c2ccc(NC(=S)NC(=O)COc3ccc(Br)cc3Cl)cc2)n1 | 0.197
Cn1cc(C2=C(c3cn(C4CCN(Cc5ccccn5)CC4)c4ccccc34)C(=O)NC2=O)c2ccccc21 | -0.04
CCOc1ccc(Cc2nccc3cc(OCC)c(OCC)cc23)cc1OCC [Ethaverine hydrochloride] | 0.163
C[C@@H]1CC[C@@]2(OC1)O[C@H]1C[C@H]3[C@@H]4CC=C5C[C@@H](O[C@@H]6O[C@H](CO)[C@@H](O[C@@H]7O[C@@H](C)[C@H](O)[C@@H](O)[C@H]7O)[C@H](O)[C@H]6O[C@@H]6O[C@@H](C)[C@H](O)[C@@H](O)[C@H]6O)CC[C@]5(C)[C@H]4CC[C@]3(C)[C@H]1[C@@H]2C [Dioscin] | -0.176
O=C1C=CC(=O)C(c2cc(Cl)ccc2Cl)=C1 | -4.93
C=CCN1CC[C@]23c4c5ccc(O)c4O[C@H]2C(=O)CC[C@@]3(O)[C@H]1C5 [Naloxone HCl Dihydrate] | 0.00115
C=CCN1CC[C@]23c4c5ccc(O)c4O[C@H]2C(=O)CC[C@@]3(O)[C@H]1C5 [Naloxone HCl] | 0.232
O=C(NCc1ccc(S(=O)(=O)c2cc(F)cc(F)c2)cc1)c1ccc2nccn2c1 | -0.219
O=c1cc[nH]c(=O)[nH]1 [Uracil] | 0.00232
Cc1noc(-c2ccc(CSCCC(=O)O)cc2)c1NC(=O)OC(C)c1ccccc1Cl (centres undefined) | 0.196
CCOC(=O)N1c2ccc(C(F)(F)F)cc2[C@@H](N(Cc2cc(C(F)(F)F)cc(C(F)(F)F)c2)C(=O)OC)C[C@H]1CC [Torcetrapib] | -0.0358
NC(=O)C(c1ccccc1)(c1ccc(F)cc1)c1ccc(F)cc1 [Senicapoc] | -0.133
Cc1ccc(C(=O)Nc2cccc(C(F)(F)F)c2)cc1Nc1nc(-c2cccnc2)nc2c1cnn2C | 0.267
COc1ccc(-c2cc(=O)c3c(OC)c(OC)c(OC)c(OC)c3o2)cc1OC [Nobiletin] | -0.168
N#Cc1c(Oc2ccc(F)c(NC(=O)Cc3cccc(C(F)(F)F)c3)c2)ccc2nc(NC(=O)C3CC3)sc12 | 0.951
CCC[C@@H]1C[C@@H](C(=O)N[C@@H]([C@H]2O[C@H](SC)[C@H](O)[C@@H](O)[C@H]2O)[C@@H](C)O)N(C)C1 [Lincomycin HCl] | -0.049
CCC[C@@H]1C[C@@H](C(=O)N[C@@H]([C@H]2O[C@H](SC)[C@H](O)[C@@H](O)[C@H]2O)[C@@H](C)O)N(C)C1 [Lincomycin hydrochloride monohydrate] | -0.0776
O=C1N=c2ccccc2=C1c1c(O)[nH]c2ccccc12 [Isoindigotin] | -0.0562
CCc1nc2c(C)cc(N3CCN(CC(=O)N4CC(O)C4)CC3)cn2c1N(C)c1nc(-c2ccc(F)cc2)c(C#N)s1 | -0.116
CN1CCCN=C1/C=C/c1cccs1 [Pyrantel tartrate] | 0.0663
CN1CCCN=C1/C=C/c1cccs1 [Pyrantel pamoate] | 0.0077

For reference, some entries already given:
SMILES | thermal shift ΔTm of Mpro [°C]
CCC[C@@H]1C[C@@H](C(=O)N[C@@H]([C@H]2O[C@H](SC)[C@H](O)[C@@H](O)[C@H]2O)[C@@H](C)O)N(C)C1 [Lincomycin hydrochloride monohydrate] | -0.0776
O=C1N=c2ccccc2=C1c1c(O)[nH]c2ccccc12 [Isoindigotin] | -0.0562
CCc1nc2c(C)cc(N3CCN(CC(=O)N4CC(O)C4)CC3)cn2c1N(C)c1nc(-c2ccc(F)cc2)c(C#N)s1 | -0.116

More records:

SMILES | thermal shift ΔTm of Mpro [°C]
CO[C@H]1C[C@@H]2CC[C@@H](C)[C@@](O)(O2)C(=O)C(=O)N2CCCC[C@H]2C(=O)O[C@H]([C@H](C)C[C@@H]2CC[C@@H](OC(=O)C(C)(CO)CO)[C@H](OC)C2)CC(=O)[C@H](C)/C=C(\C)[C@@H](O)[C@@H](OC)C(=O)[C@H](C)C[C@H](C)/C=C/C=C/C=C/1C | -0.209
Cc1ccc(Nc2nccc(N(C)c3ccc4c(C)n(C)nc4c3)n2)cc1S(N)(=O)=O [Pazopanib HCl] | -0.183
Cc1ccc(Nc2nccc(N(C)c3ccc4c(C)n(C)nc4c3)n2)cc1S(N)(=O)=O [Pazopanib] | -0.0947
CCc1ccc(/C=C2/SC(=S)NC2=O)cc1 | 0.421
CCN(CC)CCNC(=O)c1cc(Br)c(N)cc1OC [Bromopride] | -0.24
CCCCC(=O)N(Cc1ccc(-c2ccccc2-c2nnn[nH]2)cc1)[C@H](C(=O)O)C(C)C [Valsartan] | 0.0217
OC(CCN1CCCCC1)(c1ccccc1)c1ccccc1 [Loxeen] | 0.0368
COc1cc(Nc2ncc3c(n2)-c2ccc(Cl)cc2C(c2c(F)cccc2OC)=NC3)ccc1C(=O)O [Alisertib (MLN8237)] | -0.288
CC1(C)C(C(=O)Nc2ccc(S(=O)(=O)c3ccc(NC(=O)C4C(C)(C)C4(C)C)cc3)cc2)C1(C)C | 0.324
CCOC(CN1CCN(CC(C)C(=O)c2ccccc2)CC1)c1ccccc1 (centres undefined) [Eprazinone dihydrochloride] | 0.0635
OCC(CO)N[C@H]1C[C@](O)(CO)[C@@H](O)[C@H](O)[C@H]1O [Voglibose] | -0.0635
Cc1cc(Nc2ncnc3ccc(NC4=NC(C)(C)CO4)cc23)ccc1Oc1ccn2ncnc2c1 [Irbinitinib] | 0.145
O=C(NCC1CCOCC1)c1cnc(Nc2ccc(Cl)cc2Cl)nc1C(F)(F)F | -0.0643
C[C@]12CC[C@@H]3c4ccc(OC(=O)N(CCCl)CCCl)cc4CC[C@H]3[C@@H]1CC[C@@H]2OP(=O)(O)O [Estramustine phosphate sodium] | -0.224
O=CC[C@@H](O)[C@H](O)[C@H](O)CO [2-Deoxy-D-glucose] | 0.0608
Cc1cnc(NC(=O)Nc2cc(Br)c(C)cc2OC[C@@H]2CNCCO2)cn1 | 0.0592
Cc1c(C(=O)Nc2ccc(N3C[C@@H](C)O[C@@H](C)C3)nc2)cccc1-c1ccc(OC(F)(F)F)cc1 [LDE225 (NVP-LDE225,Erismodegib)] | -0.153
O=C(NCCN1CCOCC1)Nc1ccc(C(=O)/C=C/c2cccc(N3CCOCC3)n2)cc1 | -0.114
Nc1cc(C(F)(F)F)c(-c2cc(N3CCOCC3)nc(N3CCOCC3)n2)cn1 [BKM120 (NVP-BKM120, Buparlisib)] | -0.0935
O=C1S/C(=C\c2ccc(OCc3cccc(B(O)O)c3)cc2)C(=O)N1Cc1ccc(F)cc1 | 0.206
Cc1ccc(Sc2cncc3sc(C(N)=O)cc23)cc1 | -0.185
CSCC[C@H](NC(=O)[C@H](Cc1c[nH]c2ccccc12)NC(=O)CCNC(=O)OC(C)(C)C)C(=O)N[C@@H](CC(=O)O)C(=O)N[C@@H](Cc1ccccc1)C(N)=O [Pentagastrin] | 0.152

From the supplement of paper PMC8166895
